Results taken from PMC5932847.
Read-outs that look alike come from different tables or passages of the source. These are yes or no findings as the source states them, for the method shown. Binding seen in cells or lysates may run through a third protein. These calls come from enrichment with a bait or labelling near it, and not all partners need be listed.

Sequences of proteins named here, by UniProt entry; tags and fusion partners are left off.
UniProt P31749: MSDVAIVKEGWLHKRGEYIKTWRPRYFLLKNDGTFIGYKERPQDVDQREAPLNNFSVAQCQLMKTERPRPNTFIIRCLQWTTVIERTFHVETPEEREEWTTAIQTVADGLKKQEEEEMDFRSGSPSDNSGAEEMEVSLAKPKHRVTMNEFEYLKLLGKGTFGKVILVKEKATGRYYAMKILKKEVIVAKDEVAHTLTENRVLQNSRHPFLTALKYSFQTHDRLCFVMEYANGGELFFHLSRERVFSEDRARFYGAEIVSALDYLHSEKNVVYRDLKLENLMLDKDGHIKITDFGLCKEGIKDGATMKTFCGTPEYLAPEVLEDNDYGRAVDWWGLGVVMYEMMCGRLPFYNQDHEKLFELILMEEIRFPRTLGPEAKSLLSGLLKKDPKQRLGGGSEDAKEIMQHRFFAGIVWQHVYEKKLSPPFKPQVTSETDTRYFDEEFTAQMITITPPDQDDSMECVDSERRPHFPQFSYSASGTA
UniProt P62993: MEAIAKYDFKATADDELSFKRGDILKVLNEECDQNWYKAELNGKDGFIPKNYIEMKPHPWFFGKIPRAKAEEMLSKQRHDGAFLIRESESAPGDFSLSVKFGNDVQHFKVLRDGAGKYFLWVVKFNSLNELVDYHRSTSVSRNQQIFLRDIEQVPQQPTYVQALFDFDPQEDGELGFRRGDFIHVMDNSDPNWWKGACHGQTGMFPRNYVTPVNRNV
UniProt O43684: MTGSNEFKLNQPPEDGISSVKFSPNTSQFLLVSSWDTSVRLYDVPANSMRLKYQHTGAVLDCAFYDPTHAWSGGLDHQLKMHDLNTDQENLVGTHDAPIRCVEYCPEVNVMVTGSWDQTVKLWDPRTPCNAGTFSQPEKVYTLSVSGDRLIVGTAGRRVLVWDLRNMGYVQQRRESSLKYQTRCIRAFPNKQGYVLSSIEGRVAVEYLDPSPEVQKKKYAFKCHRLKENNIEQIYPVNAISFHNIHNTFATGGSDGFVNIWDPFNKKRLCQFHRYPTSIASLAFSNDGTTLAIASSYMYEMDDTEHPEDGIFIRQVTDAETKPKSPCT
UniProt P53396: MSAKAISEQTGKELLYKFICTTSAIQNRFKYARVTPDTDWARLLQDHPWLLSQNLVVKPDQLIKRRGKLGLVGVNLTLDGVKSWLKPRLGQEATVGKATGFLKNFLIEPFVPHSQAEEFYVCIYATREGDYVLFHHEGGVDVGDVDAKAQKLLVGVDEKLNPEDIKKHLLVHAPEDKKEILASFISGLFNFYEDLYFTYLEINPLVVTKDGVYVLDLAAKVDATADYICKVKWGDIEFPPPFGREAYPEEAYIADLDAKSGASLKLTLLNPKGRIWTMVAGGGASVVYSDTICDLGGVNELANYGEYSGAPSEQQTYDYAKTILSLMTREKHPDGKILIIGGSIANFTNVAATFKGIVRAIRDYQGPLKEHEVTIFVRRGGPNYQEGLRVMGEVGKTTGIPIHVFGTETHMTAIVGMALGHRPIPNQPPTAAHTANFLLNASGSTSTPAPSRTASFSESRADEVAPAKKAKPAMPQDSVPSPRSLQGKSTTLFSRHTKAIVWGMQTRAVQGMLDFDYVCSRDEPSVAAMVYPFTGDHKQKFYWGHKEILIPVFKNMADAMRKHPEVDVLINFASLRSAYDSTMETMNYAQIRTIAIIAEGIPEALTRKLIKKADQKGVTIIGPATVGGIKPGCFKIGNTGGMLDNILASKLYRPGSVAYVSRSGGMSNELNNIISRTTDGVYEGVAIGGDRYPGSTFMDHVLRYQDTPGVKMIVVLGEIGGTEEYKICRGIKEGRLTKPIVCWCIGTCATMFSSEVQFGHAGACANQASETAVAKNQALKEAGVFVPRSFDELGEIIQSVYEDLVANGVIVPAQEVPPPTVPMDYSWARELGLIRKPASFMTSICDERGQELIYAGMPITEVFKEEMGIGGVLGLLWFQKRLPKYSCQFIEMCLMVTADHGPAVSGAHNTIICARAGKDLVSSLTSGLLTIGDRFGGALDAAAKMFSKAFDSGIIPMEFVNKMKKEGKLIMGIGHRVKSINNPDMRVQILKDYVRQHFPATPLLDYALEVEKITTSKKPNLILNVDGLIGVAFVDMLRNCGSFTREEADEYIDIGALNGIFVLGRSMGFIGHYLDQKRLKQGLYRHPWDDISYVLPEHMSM
UniProt Q9BWD1: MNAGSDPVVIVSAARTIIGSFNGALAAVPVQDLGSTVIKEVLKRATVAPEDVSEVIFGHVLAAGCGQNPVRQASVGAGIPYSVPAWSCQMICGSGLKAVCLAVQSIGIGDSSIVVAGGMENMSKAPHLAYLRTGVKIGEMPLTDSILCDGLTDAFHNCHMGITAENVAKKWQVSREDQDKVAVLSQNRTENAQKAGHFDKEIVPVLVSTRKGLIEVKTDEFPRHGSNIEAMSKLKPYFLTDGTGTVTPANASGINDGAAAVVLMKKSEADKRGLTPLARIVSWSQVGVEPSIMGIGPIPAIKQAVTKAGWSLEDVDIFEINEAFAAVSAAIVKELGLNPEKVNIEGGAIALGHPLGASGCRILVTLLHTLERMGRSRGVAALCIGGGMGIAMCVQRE

Tests used:
[1] = target: AKT1 with C-terminal Strep and HA tags (UniProt P31749); experiment: affinity purification with mass spectrometry; AKT1 with C-terminal Strep and HA tags over-expressed in HEK293 cells, purified by the HA tag and by the Strep tag; SILAC labelling, cells treated or not with the AKT inhibitor MK-2206; LC-MS/MS; eGFP swapped for AKT1 as control
[2] = target: AKT1 with C-terminal Strep and HA tags (UniProt P31749); experiment: as above; remark: listed apart in the source

| Molecule | binding [1] | binding [2] |
| --- | --- | --- |
| GRB2 (from UniProt P62993 1-217) | binds | – |
| BUB3 (from UniProt O43684 1-328) | binds | – |
| citrate lyase (from UniProt P53396 1-1101) (enzyme) | binds | – |
| ACAT2 (from UniProt Q9BWD1 1-397) (enzyme) | binds | – |
| PDHB (enzyme, UniProt P11177 31-359) LQVTVRDAINQGMDEELERDEKVFLLGEEVAQYDGAYKVSRGLWKKYGDKRIIDTPISEMGFAGIAVGAAMAGLRPICEFMTFNFSMQAIDQVINSAAKTYYMSGGLQPVPIVFRGPNGASAGVAAQHSQCFAAWYGHCPGLKVVSPWNSEDAKGLIKSAIRDNNPVVVLENELMYGVPFEFPPEAQSKDFLIPIGKAKIERQGTHITVVSHSRPVGHCLEAAAVLSKEGVECEVINMRTIRPMDMETIEASVMKTNHLVTVEGGWPQFGVGAEICARIMEGPAFNFLDAPAVRVTGADVPMPYAKILEDNSIPQVKDIIFAIKKTLNI | – | binds |
